Test results from publication PMC8102552.
No constants are given. Whether binding was seen depends on the method and setting. Binding seen in cells or lysates may run through a third protein. Some results given as binding are weak or reduced against the parent protein; the word gives no strength.

The chains behind the UniProt entries cited, without tags or fusion partners.
UniProt A2AWL7: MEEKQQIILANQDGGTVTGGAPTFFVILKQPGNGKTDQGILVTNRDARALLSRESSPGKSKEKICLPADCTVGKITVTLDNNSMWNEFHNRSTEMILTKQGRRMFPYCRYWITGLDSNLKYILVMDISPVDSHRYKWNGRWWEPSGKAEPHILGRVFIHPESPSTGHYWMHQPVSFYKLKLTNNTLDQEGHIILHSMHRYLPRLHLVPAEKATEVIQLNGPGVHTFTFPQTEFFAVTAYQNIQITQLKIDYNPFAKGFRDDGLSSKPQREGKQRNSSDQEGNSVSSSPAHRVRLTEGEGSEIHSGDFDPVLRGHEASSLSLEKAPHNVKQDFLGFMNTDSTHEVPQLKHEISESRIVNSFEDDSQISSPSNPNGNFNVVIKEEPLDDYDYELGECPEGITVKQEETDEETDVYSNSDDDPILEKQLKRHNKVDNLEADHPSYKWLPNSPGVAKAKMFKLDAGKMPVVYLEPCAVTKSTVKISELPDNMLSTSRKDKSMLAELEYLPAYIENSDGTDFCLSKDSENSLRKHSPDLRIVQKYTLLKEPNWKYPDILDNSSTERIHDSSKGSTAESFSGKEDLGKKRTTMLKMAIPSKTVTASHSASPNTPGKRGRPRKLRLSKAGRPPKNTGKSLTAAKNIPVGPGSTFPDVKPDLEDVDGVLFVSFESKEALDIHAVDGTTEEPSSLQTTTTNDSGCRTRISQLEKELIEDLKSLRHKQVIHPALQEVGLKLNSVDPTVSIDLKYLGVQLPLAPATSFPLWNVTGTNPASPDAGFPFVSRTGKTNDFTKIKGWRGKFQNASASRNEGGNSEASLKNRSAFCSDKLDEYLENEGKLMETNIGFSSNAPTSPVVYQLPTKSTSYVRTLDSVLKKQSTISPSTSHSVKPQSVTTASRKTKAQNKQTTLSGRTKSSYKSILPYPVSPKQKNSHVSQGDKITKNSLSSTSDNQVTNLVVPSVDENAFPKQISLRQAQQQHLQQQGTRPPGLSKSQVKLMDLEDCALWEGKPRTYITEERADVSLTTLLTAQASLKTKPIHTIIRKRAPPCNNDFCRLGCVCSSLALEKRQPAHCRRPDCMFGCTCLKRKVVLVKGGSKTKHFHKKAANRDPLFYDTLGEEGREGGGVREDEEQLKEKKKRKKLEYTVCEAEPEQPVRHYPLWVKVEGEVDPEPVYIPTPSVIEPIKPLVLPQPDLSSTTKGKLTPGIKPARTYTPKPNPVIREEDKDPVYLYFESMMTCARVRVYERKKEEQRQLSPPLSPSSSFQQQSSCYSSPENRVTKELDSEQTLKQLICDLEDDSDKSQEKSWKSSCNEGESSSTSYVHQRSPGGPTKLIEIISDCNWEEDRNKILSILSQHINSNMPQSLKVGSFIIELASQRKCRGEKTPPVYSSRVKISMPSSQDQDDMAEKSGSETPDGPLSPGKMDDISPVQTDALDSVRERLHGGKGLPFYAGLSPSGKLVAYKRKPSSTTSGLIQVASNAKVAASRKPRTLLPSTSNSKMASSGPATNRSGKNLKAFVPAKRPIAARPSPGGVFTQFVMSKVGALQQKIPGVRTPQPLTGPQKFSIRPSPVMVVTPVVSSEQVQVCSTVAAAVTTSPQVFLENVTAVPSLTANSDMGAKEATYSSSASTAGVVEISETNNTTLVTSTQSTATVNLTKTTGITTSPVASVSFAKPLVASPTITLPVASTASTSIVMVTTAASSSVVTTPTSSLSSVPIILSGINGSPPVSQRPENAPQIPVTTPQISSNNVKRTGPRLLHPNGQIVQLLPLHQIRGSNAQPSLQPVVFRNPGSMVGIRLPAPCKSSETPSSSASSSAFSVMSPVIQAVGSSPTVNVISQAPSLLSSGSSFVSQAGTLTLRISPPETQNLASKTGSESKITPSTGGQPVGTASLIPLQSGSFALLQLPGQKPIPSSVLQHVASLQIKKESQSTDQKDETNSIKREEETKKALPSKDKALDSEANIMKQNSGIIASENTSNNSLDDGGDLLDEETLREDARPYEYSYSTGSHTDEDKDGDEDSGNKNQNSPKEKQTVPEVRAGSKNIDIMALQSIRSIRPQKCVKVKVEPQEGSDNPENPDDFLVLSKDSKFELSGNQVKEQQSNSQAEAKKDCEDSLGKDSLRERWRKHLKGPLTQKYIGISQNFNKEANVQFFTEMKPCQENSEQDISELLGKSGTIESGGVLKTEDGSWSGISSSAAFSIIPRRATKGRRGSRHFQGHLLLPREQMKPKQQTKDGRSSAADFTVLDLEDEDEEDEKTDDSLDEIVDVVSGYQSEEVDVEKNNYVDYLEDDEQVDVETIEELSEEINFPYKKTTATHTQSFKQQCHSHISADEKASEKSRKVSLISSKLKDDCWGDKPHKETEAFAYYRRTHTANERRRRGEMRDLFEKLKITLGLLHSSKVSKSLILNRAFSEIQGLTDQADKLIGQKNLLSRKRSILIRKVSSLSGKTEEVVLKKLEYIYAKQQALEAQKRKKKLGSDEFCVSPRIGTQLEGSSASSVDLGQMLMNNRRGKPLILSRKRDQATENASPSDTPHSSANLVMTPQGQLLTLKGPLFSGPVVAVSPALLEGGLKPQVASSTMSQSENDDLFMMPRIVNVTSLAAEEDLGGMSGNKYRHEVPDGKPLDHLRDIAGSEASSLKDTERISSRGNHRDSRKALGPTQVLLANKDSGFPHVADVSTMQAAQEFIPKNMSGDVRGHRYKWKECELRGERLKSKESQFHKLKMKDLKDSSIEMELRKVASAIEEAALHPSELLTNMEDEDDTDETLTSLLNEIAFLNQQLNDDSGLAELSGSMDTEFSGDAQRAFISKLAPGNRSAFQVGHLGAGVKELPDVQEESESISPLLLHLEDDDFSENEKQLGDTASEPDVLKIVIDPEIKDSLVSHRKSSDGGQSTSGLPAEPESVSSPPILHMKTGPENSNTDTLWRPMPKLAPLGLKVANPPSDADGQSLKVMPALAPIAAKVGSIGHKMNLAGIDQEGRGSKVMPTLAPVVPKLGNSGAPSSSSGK
UniProt Q13185: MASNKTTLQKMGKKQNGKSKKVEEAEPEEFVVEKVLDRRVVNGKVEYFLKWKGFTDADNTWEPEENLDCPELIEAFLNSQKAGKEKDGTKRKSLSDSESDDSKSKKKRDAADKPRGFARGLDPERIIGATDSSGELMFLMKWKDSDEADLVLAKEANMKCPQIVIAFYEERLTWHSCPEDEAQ
UniProt P61244: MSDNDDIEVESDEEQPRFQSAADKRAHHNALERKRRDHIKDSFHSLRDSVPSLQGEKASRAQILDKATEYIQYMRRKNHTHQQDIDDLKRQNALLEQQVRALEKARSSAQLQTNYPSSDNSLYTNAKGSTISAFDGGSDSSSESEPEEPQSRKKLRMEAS
UniProt Q99496: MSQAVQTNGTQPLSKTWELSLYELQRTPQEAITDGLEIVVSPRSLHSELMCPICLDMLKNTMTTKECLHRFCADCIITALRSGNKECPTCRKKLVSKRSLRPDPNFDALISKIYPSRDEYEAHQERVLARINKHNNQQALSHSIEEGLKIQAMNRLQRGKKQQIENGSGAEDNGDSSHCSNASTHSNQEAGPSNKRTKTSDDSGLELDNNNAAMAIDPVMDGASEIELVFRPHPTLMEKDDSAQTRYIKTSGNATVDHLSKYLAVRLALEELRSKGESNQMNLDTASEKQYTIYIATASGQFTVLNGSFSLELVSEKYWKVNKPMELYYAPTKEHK
UniProt Q15022: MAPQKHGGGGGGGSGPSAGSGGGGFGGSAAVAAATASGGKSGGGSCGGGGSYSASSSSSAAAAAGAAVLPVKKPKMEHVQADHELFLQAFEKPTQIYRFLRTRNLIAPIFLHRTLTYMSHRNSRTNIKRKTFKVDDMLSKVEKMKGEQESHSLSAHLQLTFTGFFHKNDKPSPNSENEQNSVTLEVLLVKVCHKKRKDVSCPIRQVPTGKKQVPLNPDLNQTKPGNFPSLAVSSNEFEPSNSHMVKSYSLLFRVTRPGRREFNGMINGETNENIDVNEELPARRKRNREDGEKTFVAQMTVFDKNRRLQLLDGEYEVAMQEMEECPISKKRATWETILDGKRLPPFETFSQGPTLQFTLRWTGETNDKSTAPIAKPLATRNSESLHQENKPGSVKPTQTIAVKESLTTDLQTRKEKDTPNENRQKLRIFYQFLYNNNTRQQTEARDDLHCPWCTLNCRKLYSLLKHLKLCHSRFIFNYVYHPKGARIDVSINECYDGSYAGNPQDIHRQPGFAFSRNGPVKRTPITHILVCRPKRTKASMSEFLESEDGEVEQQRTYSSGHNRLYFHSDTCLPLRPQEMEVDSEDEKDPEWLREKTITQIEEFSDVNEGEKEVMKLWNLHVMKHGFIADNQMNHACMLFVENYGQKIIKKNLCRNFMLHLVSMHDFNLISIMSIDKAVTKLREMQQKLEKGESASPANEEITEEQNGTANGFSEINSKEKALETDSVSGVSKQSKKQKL

Target: Flag-tagged canonical MGA (mouse) (UniProt A2AWL7)
Test: co-IP; anti-Flag antibody (control: normal mouse IgG) with Dynabeads bearing anti-mouse IgG added to nuclear extract (300 mM NaCl) of transiently transfected HEK293FT cells (MGA-null by the legend); 1 h at 4 °C; washed with PBS containing 0.1% BSA; western blot

| binding | Molecule |
| --- | --- |
| binds | HP1γ (from UniProt Q13185 1-183) |
| binds | MAX (from UniProt P61244 1-160) |
| binds | RING1B (from UniProt Q99496 1-336) |
| no binding | SUZ12 (from UniProt Q15022 1-739) |
| binds | PCGF6 (protein, UniProt Q9BYE7 1-350) MEGVAVVTAGSVGAAKTEGAAALPPPPPVSPPALTPAPAAGEEGPAPLSETGAPGCSGSRPPELEPERSLGRFRGRFEDEDEELEEEEELEEEEEEEEEDMSHFSLRLEGGRQDSEDEEERLINLSELTPYILCSICKGYLIDATTITECLHTFCKSCIVRHFYYSNRCPKCNIVVHQTQPLYNIRLDRQLQDIVYKLVINLEEREKKQMHDFYKERGLEVPKPAVPQPVPSSKGRSKKVLESVFRIPPELDMSLLLEFIGANEGTGHFKPLEKKFVRVSGEATIGHVEKFLRRKMGLDPACQVDIICGDHLLEQYQTLREIRRAIGDAAMQDGLLVLHYGLVVSPLKIT |
